Screening data, single-dose tests

By UniProt entry, the sequences of proteins in these tests, tags left out. Residues count along the entry.
UniProt P9WNZ1, whole entry: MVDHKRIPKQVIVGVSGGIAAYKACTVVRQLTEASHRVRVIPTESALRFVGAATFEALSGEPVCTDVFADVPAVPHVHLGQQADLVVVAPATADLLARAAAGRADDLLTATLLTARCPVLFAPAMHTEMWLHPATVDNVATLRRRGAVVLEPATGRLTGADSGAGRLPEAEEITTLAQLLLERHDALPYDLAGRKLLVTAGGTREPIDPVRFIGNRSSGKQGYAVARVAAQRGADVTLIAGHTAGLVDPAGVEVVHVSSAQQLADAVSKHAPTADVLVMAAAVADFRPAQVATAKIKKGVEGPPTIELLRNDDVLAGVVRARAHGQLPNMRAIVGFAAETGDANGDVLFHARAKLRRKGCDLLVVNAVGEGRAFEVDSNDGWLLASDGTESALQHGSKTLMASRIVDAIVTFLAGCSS
UniProt P9WFT3, whole entry: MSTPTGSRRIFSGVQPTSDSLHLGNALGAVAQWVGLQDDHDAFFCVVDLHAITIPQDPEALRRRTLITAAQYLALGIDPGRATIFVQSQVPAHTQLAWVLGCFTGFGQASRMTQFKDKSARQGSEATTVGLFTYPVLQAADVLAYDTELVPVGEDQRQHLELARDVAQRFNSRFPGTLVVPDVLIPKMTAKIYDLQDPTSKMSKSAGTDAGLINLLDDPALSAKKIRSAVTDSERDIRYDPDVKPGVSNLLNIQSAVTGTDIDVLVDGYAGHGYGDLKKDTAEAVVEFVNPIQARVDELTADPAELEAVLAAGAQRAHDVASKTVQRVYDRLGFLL
UniProt A4I591, 1-473: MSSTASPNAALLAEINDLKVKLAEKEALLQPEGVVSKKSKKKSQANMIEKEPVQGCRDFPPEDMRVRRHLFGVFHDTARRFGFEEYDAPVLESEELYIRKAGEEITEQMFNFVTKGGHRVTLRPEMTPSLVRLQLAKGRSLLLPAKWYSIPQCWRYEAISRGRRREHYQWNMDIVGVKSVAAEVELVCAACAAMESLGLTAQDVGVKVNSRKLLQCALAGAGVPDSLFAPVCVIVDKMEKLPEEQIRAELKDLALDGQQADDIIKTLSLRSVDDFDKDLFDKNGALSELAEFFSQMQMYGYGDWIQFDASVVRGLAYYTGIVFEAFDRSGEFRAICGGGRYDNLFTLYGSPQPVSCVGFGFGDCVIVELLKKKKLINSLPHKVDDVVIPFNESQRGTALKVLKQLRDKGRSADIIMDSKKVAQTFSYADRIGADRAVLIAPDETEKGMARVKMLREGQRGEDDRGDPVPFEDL

Data taken from ChEMBL document CHEMBL3988442, “University of Dundee, Small-Polar-MMV Screening Library” (2021).

A: 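Coenzyme A biosynthesis protein CoaBC, Mycobacterium tuberculosis (UniProt P9WNZ1). Enzyme assay of CoaBC with a phosphate dye (Biomol Green) read at 650 nm. Concentration: 30 µM. Direction is inferred from only a few compounds that gave an IC50; most scored high, so higher reads as stronger inhibition. Most strong results did not repeat in a second test. Of about 67,000 compounds tested this way, about 40 (0.06%) reached 50% or more in at least one test.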
B: 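Assay of Toxoplasma gondii numbers, read through their beta-galactosidase reporter with a colour substrate. Tested at 10 µM. Higher reads as fewer parasites (inferred from which compounds were picked for retests). About 67,000 compounds were tested under these conditions; 0.38% (about 260) showed 50% or more at least once.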
C: 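Cell assay of Leishmania donovani living inside macrophages; the read-out is not stated. Tested at 30 µM. Higher reads as stronger inhibition (inferred: compounds with an IC50 in retests scored well above the rest). Size under these conditions: about 69,000 compounds, about 1,000 of them at 50% or above in at least one test.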
D: 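Enzyme assay of tryptophanyl-tRNA synthetase; the read-out is not stated. Target: Tryptophan-tRNA ligase, Mycobacterium tuberculosis (UniProt P9WFT3). Tested at 10 µM. Direction is not recorded; retested compounds ran higher, which suggests that high means inhibition. Size under these conditions: about 65,000 compounds, about 64 of them at 50% or above in at least one test.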
E: 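Enzyme assay of histidyl-tRNA synthetase; the read-out is not stated. Target: Histidine-tRNA ligase, Leishmania infantum (UniProt A4I591). Tested at 30 µM. The record gives no direction; compounds that gave an IC50 in retests scored well above the rest, so higher reads as stronger inhibition. The assay is labelled LdHisRS but filed under L. infantum. About 69,000 compounds were tested under these conditions; 0.6% (about 410) showed 50% or more at least once.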

Results are given as percent effect. The record does not define 0% and 100%; most values in the screen are far below 50% and negative numbers occur (in some assays of this library far below -100). Compounds were drawn at random from those tested, without regard to their results.

SMILES: CC(C)c1nc(C2CCCNC2)no1 (centres unmarked)
A: 3.423
D: 1.958
E: 9.677

SMILES: CN(CC(=O)N(C)C)Cc1ccc(C#N)cc1F
A: -6.522
B: 3.558
C: -9.392
D: 3.179
E: -1.571

SMILES: CC(C)Cc1cc(C(=O)NCC2CCCN(c3ccccn3)C2)on1 (centres unmarked)
A: 1.707
B: 3.353
C: 8.433
D: 1.868
E: 13.33

SMILES: O=C(c1ccc(Br)cc1F)N1CCc2ccncc21
A: 2.427
B: -1.741
C: -19.09
D: -9.098
E: 7.229

SMILES: CCOc1ccc(CCCC(=O)N2CCC(C(=O)NC)C2)cc1C (centres unmarked)
A: -3.038
C: 44.3
D: 2.733
E: 15.22

SMILES: O=C1C(Nc2ccc3nccnc3n2)CCN1c1ccccc1F (centres unmarked)
A: 8.065
B: -0.6002
C: 17.34
D: -2.3
E: 5.263

SMILES: O=C(CCn1cccn1)N1CC[C@@H](c2ccc3ccccc3c2)[C@H](O)C1
A: 1.525
B: -4.338
C: 22.96
D: 0.07374
E: 8.772

SMILES: CC(C)(C)n1cc(C2=CCN(CCc3ccccc3)CC2)cn1
A: 11.81
B: -1.163
C: 34.02
D: -3.223
E: 24.04

SMILES: CNc1ncc(CN(C)C(=O)CCc2[nH]nc3c2CCCC3)cn1
A: 6.667
B: -11.71
C: 11.17
D: -1.723
E: 11.19

SMILES: CN(C)c1nc(N2CCCC2)nc2c1CCN(Cc1nccn1C)CC2.O=C(O)C(F)(F)F
B: 14.52
C: 24.76

SMILES: CCc1nccn1C1CCCN(C(=O)c2ccc(-n3ccnc3)cc2)C1 (centres unmarked)
A: 3.226
B: 0.7837
C: 7.586
D: -1.655
E: 0

SMILES: c1csc(-c2noc(CNC3CCc4ncnn4C3)n2)c1 (centres unmarked)
A: 4.608
B: 13.9
C: 1.908
D: 0.9676
E: 5.505

SMILES: CC(C)(C)OC(=O)N1CCC(NC2CC2)CC1
A: 3.797
B: 2.953
C: 19.74
D: -3.193
E: 3.896

SMILES: CCc1nc(NS(=O)(=O)c2ccc(F)cc2C)no1
A: -2.679
B: -1.762
C: 1.124
D: 6.039
E: 12.62

Once more, the final 2:

| SMILES | A | B | C | D | E |
|---|---|---|---|---|---|
| `CC(C)(C)OC(=O)N1CCC(NC2CC2)CC1` | 3.797 | 2.953 | 19.74 | -3.193 | 3.896 |
| `CCc1nc(NS(=O)(=O)c2ccc(F)cc2C)no1` | -2.679 | -1.762 | 1.124 | 6.039 | 12.62 |